Results are given as percent effect.
The controls that fix the scale are not given in the record; negative values are as filed.
The compounds are a random part of those screened.
Two or more numbers in one place are separate tests of the same structure; such repeats can differ widely.

Amino acid sequences for entries named in this document (tags omitted). Residues count along the entry.
UniProt P9WPC5, whole entry: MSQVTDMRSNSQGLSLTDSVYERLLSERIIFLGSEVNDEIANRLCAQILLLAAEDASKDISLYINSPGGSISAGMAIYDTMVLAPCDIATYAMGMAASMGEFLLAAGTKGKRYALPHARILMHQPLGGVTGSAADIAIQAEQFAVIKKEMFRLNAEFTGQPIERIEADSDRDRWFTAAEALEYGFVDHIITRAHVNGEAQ
UniProt P9WPC3, whole entry partner: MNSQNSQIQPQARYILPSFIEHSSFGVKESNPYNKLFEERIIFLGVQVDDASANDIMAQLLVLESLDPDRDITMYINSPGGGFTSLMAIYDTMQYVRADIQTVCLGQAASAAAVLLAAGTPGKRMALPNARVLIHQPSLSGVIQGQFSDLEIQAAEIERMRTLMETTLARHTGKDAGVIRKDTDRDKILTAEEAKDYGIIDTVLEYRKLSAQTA
UniProt P9WNZ1, whole entry: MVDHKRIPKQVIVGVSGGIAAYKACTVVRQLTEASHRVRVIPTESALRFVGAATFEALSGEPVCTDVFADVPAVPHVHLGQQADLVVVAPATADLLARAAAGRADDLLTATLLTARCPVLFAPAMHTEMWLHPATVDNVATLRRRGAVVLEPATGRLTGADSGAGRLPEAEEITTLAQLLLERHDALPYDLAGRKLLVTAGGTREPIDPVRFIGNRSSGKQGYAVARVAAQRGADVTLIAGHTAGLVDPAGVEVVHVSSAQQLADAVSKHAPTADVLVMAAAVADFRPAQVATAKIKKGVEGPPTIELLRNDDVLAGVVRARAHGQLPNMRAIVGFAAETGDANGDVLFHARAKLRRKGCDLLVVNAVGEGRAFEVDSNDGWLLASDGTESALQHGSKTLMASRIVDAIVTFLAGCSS
UniProt A4I591, 1-473: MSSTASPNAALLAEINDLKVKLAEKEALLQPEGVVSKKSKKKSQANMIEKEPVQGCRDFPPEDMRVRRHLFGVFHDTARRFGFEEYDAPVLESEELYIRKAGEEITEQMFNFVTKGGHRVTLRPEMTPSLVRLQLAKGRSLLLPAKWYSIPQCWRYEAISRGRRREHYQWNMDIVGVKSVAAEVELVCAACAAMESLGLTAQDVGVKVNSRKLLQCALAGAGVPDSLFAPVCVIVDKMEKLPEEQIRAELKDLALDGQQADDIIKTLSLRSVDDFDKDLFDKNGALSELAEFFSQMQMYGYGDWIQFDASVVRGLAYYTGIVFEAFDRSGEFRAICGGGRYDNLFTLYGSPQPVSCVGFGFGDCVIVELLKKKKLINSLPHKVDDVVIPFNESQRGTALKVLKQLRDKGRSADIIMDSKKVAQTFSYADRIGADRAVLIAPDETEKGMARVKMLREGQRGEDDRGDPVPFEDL

ClpP1P2: 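Protease assay of ClpP1P2, read by the AMC dye that it sets free. Target: ClpP1P2, Mycobacterium tuberculosis (UniProt P9WPC5 and UniProt P9WPC3). Tested at 50 µM. Direction is inferred from only a few compounds that gave an IC50; most scored high, so higher reads as stronger inhibition. Most other retested compounds had strongly negative values. Size under these conditions: about 69,000 compounds, about 10 of them at 50% or above in at least one test.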
CoaBC: 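Coenzyme A biosynthesis protein CoaBC, Mycobacterium tuberculosis (UniProt P9WNZ1). Enzyme assay of CoaBC with a phosphate dye (Biomol Green) read at 650 nm. Tested at 30 µM. Direction is inferred from only a few compounds that gave an IC50; most scored high, so higher reads as stronger inhibition. Most strong results did not repeat in a second test. About 67,000 compounds were tested under these conditions; 0.06% (about 40) showed 50% or more at least once.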
Leishmania in macrophages: 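Cell assay of Leishmania donovani living inside macrophages; the read-out is not stated. Compounds at 30 µM. The record gives no direction; compounds that gave an IC50 in retests scored well above the rest, so higher reads as stronger inhibition. Size under these conditions: about 69,000 compounds, about 1,000 of them at 50% or above in at least one test.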
LiHisRS: 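Histidine-tRNA ligase, Leishmania infantum (UniProt A4I591). Enzyme assay of histidyl-tRNA synthetase; the read-out is not stated. Compounds at 30 µM. The record gives no direction; compounds that gave an IC50 in retests scored well above the rest, so higher reads as stronger inhibition. The assay is labelled LdHisRS but filed under L. infantum. About 69,000 compounds were tested under these conditions; 0.6% (about 410) showed 50% or more at least once.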

For [H][C@]12C[C@H](C(=O)NCC3CC3)N(C)[C@@]1([H])CN(c1ncccn1)C2 the result was Leishmania in macrophages: 21.55%. CNc1ncc(CN2CCCC2c2[nH]ncc2C(=O)N(C)C)cn1 (centres unmarked) read ClpP1P2: -3.172%; CoaBC: 2.85%; Leishmania in macrophages: 8.066%; LiHisRS: 12.68%. CN(CCOc1cccc(F)c1)CC(=O)Nc1ccncc1 read ClpP1P2: 0.4107%; CoaBC: 4.474%; Leishmania in macrophages: 22.43%; LiHisRS: 10.34%. Result for O=C(Cc1cccc(F)c1)NC1CCCc2cn[nH]c21 (centres unmarked) was ClpP1P2: -13.13%; CoaBC: 4.557%; Leishmania in macrophages: -8.66% & 31%; LiHisRS: 21.05%. Cc1cc(CN2CCCC2Cn2cccn2)no1 (centres unmarked) gave ClpP1P2: -45.02%; CoaBC: 3.581%; Leishmania in macrophages: 14.79%; LiHisRS: 5.505%. CCS(=O)(=O)N1CCN(CCn2cccn2)c2nc(C)ccc2C1.O=C(O)C(F)(F)F read Leishmania in macrophages: 4.41%.

With CCOCC(O)CN1CCN(C(=O)Cc2ccc3c(c2)CCC3)CC1 (centres unmarked) the screen gave ClpP1P2: -6.025%; CoaBC: 1.141%; Leishmania in macrophages: -7.223%; LiHisRS: 0%. NC(=O)C1CCN(C(=O)c2ccc(Cn3cc(Br)cn3)cc2)CC1 gave ClpP1P2: -7.629%; CoaBC: 13.85%; Leishmania in macrophages: -21.15%; LiHisRS: 26.47%. With Cc1cnn(CC(C)NCc2nc(-c3ccco3)no2)c1 (centres unmarked) the screen gave ClpP1P2: -9.652%; CoaBC: 8.439%; Leishmania in macrophages: -5.273%; LiHisRS: 12.5%. COC(=O)c1cc(C)nc(N2CCN(Cc3cc(C(C)C)no3)CC2)n1 read ClpP1P2: 10.88%; CoaBC: -4.245%; Leishmania in macrophages: -4.636%; LiHisRS: 7.692%. Cc1ccoc1C(=O)N1C[C@@H](N2CCN(C)CC2)[C@H]2OCCC[C@H]21 read ClpP1P2: -1.26%; CoaBC: 7.128%; LiHisRS: 13.16%. O=C(O)C(F)(F)F.O=C(O)C(F)(F)F.[H][C@@]12OCCC[C@]1([H])N(Cc1cc(C)c(C)o1)C[C@@H]2N1CCOCC1 gave Leishmania in macrophages: 6.551%.

CN1C[C@@H]2COC[C@]2(C(=O)NCc2cccs2)C1 gave ClpP1P2: 14.86%; CoaBC: 18.94%; LiHisRS: 18.42%. With CC(C)COC(C)C(=O)N1CCCC1 (centres unmarked) the screen gave ClpP1P2: -2.756%; CoaBC: -16.04%; Leishmania in macrophages: 21.18%; LiHisRS: 5.714%. O=C(N[C@H]1CN[C@H]2CCCO[C@H]21)c1ccno1 read ClpP1P2: -0.3205%; CoaBC: 11.83%; LiHisRS: 7.619%. For COc1ccc(NC(=O)Cn2nc(C)c(C)cc2=O)cc1 the result was ClpP1P2: -9.163%; CoaBC: -2.051%; Leishmania in macrophages: 13.79%; LiHisRS: -0.8%. c1cc(N2CCOCC(Cc3ccc4[nH]ccc4c3)C2)ncn1 (centres unmarked) gave ClpP1P2: -9.266%; CoaBC: 3.337%; Leishmania in macrophages: 20.06%; LiHisRS: 7.586%. Cc1oc(C)c(C(=O)NCc2cccc(NC(=O)CN(C)C)c2)c1C gave ClpP1P2: 2.613%; CoaBC: 0%; Leishmania in macrophages: 17.5%; LiHisRS: 5.405%.

CC(C)(NC(=O)c1coc(COc2cccc(F)c2)n1)C(N)=O read ClpP1P2: -5.326%; CoaBC: 6.542%; Leishmania in macrophages: 23.65%; LiHisRS: 30.26%. CC(C)(C)CC(=O)NCCn1nc(C2CCNC2)c2cccnc21.Cl (centres unmarked) read Leishmania in macrophages: -9.551% & -6.549%. For COCc1ncc(CN2CC[C@@](C)(O)[C@@H](Cc3ccccc3)C2)cn1 the result was ClpP1P2: -8.639%; CoaBC: 5.925%; Leishmania in macrophages: 11.16%; LiHisRS: 16.13%. With CCC(N)C(=O)N1CCC(OCc2ccc(Cl)c(Cl)c2)CC1 (centres unmarked) the screen gave ClpP1P2: -5.925%; CoaBC: 4.369%; LiHisRS: 7.143%. With c1cnn(CCC2CCCCN2Cc2cnc(C3CCCCC3)nc2)c1 (centres unmarked) the screen gave ClpP1P2: 12.84%; CoaBC: -3.086%; Leishmania in macrophages: 24.87%; LiHisRS: 38.71%. With [H][C@@]12CNC(=O)N1CCN(Cc1cccc(C)n1)C2 the screen gave Leishmania in macrophages: 12.91%.

COC(=O)c1cccc(S(=O)(=O)N2CSCC2C(=O)N(C)C2CC2)c1 (centres unmarked) read ClpP1P2: -2.256%; CoaBC: 1.282%; Leishmania in macrophages: 32.18%; LiHisRS: 12.33%. c1cnc(NC2COC3(CCN(Cc4nccs4)CC3)C2)cn1 (centres unmarked) read ClpP1P2: -9.012%; CoaBC: 1.25%; LiHisRS: 6%. For CC(C)NC(=O)CC1COC2(CCN(Cc3ccccc3)CC2)C1 (centres unmarked) the result was ClpP1P2: 13.5%; CoaBC: 2.177%; LiHisRS: 17.07%. CC(CS(C)(=O)=O)N(C(=O)Nc1ccc(F)cc1F)C1CC1 (centres unmarked) gave ClpP1P2: -5.908%; CoaBC: 9.234%; Leishmania in macrophages: 15.68%; LiHisRS: 14.91%. Result for O=C(O)C(F)(F)F.O=C(O)C(F)(F)F.O=C(O)C(F)(F)F.[H][C@]12CCN(Cc3ccccn3)[C@@]1([H])CC[C@H](COCCN1CCCC1)O2 was Leishmania in macrophages: 3.959%. With COc1ccc(N2CCN(C(=O)[C@@H]3C[C@@H](O)CN3)CC2(C)C)cc1 the screen gave ClpP1P2: 7.684%; CoaBC: -4.713%; Leishmania in macrophages: 31.76%; LiHisRS: -4.286%.

Cc1nc2cc(C3CCN(C(=O)c4ccccn4)CC3)nn2c(O)c1C read ClpP1P2: 15.19%; CoaBC: 3.206%; Leishmania in macrophages: -19.04%; LiHisRS: -4.225%. With Cc1cc(NCCNS(=O)(=O)c2cn(C)nc2C)c2ccccc2n1 the screen gave ClpP1P2: -15.17%; CoaBC: 4.294%; Leishmania in macrophages: -0.5544%; LiHisRS: 7.092%. With O=C(c1cccnc1-c1ccoc1)N1C[C@H]2CC[C@@H]1C2 the screen gave ClpP1P2: 7.229%; CoaBC: 2.664%; LiHisRS: 1.429%. For c1cncc(COCc2nnc3n2CCN(Cc2ccsc2)C3)c1 the result was ClpP1P2: 11.23%; CoaBC: 11.36%; LiHisRS: 8.491%.

Once more, the final 4:

- Cc1nc2cc(C3CCN(C(=O)c4ccccn4)CC3)nn2c(O)c1C : ClpP1P2: 15.19%; CoaBC: 3.206%; Leishmania in macrophages: -19.04%; LiHisRS: -4.225%
- Cc1cc(NCCNS(=O)(=O)c2cn(C)nc2C)c2ccccc2n1 : ClpP1P2: -15.17%; CoaBC: 4.294%; Leishmania in macrophages: -0.5544%; LiHisRS: 7.092%
- O=C(c1cccnc1-c1ccoc1)N1C[C@H]2CC[C@@H]1C2 : ClpP1P2: 7.229%; CoaBC: 2.664%; LiHisRS: 1.429%
- c1cncc(COCc2nnc3n2CCN(Cc2ccsc2)C3)c1 : ClpP1P2: 11.23%; CoaBC: 11.36%; LiHisRS: 8.491%

Data taken from ChEMBL document CHEMBL3988442, “University of Dundee, Small-Polar-MMV Screening Library” (2021).